No constants are given. Whether binding was seen depends on the method and setting. For part of these data: In cells and extracts the contact can be indirect. Some binding calls cover weakened binding; strength is not graded here. For part of these data: Tags and fused reporters may be left off the sequences shown.
Legend:
[1] = target: biotin-labeled recombinant PP2Aa protein (UniProt P30153); test: AlphaScreen or HTRF; biotin-labeled PP2Aa on streptavidin donor beads, His-tagged STRN3 on nickel chelate acceptor beads; screen of 3095 compounds, inhibition rate as read-out; both purified
HA-tagged PP2Aa = HA-tagged PP2Aa (UniProt P30153); test: co-IP; HA-PP2Aa and Flag-STRN3 in HEK293A cells treated with indicated doses of DSF (Fig. 1G) or with TH (Fig. S5C)
MST2 (Co-IP with STRN3) = target: T1, MST2 (Co-IP with STRN3) (UniProt Q13188); test: co-IP; MST2 and STRN3, with doses of CX (Fig. S6F); cells and tags not given
T1 sequence: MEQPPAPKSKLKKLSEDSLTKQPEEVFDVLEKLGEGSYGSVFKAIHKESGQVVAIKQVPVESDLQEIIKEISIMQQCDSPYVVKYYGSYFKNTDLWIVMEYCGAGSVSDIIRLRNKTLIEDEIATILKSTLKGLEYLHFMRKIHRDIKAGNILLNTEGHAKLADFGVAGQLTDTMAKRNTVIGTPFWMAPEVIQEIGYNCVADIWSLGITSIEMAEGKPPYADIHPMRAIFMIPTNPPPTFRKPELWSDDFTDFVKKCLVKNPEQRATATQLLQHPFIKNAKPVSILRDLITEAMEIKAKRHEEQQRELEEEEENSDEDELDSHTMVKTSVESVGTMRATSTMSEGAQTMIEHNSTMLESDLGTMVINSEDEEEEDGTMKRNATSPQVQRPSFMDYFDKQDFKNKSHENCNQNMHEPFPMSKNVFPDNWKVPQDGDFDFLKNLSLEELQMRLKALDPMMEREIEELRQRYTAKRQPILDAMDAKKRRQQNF

Sequences of proteins named here, by UniProt entry; tags and fusion partners are left off. A change or cut given only in a name is not applied to a line headed by its entry. Residues count along the entry.
UniProt P30153: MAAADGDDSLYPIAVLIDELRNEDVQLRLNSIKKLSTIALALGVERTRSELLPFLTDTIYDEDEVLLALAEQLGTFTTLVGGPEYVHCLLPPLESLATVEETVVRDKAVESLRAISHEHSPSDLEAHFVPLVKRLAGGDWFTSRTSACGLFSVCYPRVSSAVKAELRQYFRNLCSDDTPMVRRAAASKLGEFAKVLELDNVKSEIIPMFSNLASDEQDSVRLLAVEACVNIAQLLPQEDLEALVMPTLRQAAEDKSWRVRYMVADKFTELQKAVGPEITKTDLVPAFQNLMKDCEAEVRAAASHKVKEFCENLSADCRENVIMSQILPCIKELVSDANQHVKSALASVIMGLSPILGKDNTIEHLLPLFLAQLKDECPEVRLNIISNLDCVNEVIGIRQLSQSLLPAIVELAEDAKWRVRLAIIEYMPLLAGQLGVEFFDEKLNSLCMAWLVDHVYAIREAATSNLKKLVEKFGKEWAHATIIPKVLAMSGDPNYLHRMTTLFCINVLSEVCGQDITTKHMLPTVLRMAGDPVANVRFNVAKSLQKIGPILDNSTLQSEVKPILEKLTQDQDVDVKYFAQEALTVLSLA
biotin-labeled recombinant PP2Aa protein: residues 8-589 of P30153

B1: His-SUMO-tagged STRN3 (amino acid 64–145) (domain or fragment, UniProt Q13033 64-145, looked up)
chain: TIPGILHYIQHEWARFEMERAHWEVERAELQARIAFLQGERKGQENLKKDLVRRIKMLEYALKQERAKYHKLKYGTELNQGD
notes: STRN3 (striatin-3), amino acid 64-145; Used where the tag is named or used for capture: the GST and MBP pull-downs and the nickel chelate acceptor beads of the AlphaScreen; also called HS-STRN3; His-tagged STRN3
B1 was tested, and the binding [1] was “binds”.

B2: Flag-tagged STRN3 (protein, UniProt Q13033 1-797)
chain: MDELAGGGGGGPGMAAPPRQQQGPGGNLGLSPGGNGAAGGGGPPASEGAGPAAGPELSRPQQYTIPGILHYIQHEWARFEMERAHWEVERAELQARIAFLQGERKGQENLKKDLVRRIKMLEYALKQERAKYHKLKYGTELNQGDLKMPTFESEETKDTEAPTAPQNSQLTWKQGRQLLRQYLQEVGYTDTILDVRSQRVRSLLGLSNSEPNGSVETKNLEQILNGGESPKQKGQEIKRSSGDVLETFNFLENADDSDEDEENDMIEGIPEGKDKHRMNKHKIGNEGLAADLTDDPDTEEALKEFDFLVTAEDGEGAGEARSSGDGTEWDKDDLSPTAEVWDVDQGLISKLKEQYKKERKGKKGVKRANRTKLYDMIADLGDDELPHIPSGIINQSRSASTRMTDHEGARAEEAEPITFPSGGGKSFIMGSDDVLLSVLGLGDLADLTVTNDADYSYDLPANKDAFRKTWNPKYTLRSHFDGVRALAFHPVEPVLVTASEDHTLKLWNLQKTVPAKKSASLDVEPIYTFRAHIGPVLSLAISSNGEQCFSGGIDATIQWWNMPSPSVDPYDTYEPNVLAGTLVGHTDAVWGLAYSGIKNQLLSCSADGTVRLWNPQEKLPCICTYNGDKKHGIPTSVDFIGCDPAHMVTSFNTGSAVIYDLETSQSLVILSSQVDSGLQSNNHINRVVSHPTLPVTITAHEDRHIKFFDNKTGKMIHSMVAHLDAVTSLAVDPNGIYLMSGSHDCSIRLWNLDSKTCVQEITAHRKKLDESIYDVAFHSSKAYIASAGADALAKVFV
For B2, the binding (HA-tagged PP2Aa) was “binds”.

B3: STRN3 (Co-IP with MST2) (protein, UniProt Q13033 1-797)
chain: MDELAGGGGGGPGMAAPPRQQQGPGGNLGLSPGGNGAAGGGGPPASEGAGPAAGPELSRPQQYTIPGILHYIQHEWARFEMERAHWEVERAELQARIAFLQGERKGQENLKKDLVRRIKMLEYALKQERAKYHKLKYGTELNQGDLKMPTFESEETKDTEAPTAPQNSQLTWKQGRQLLRQYLQEVGYTDTILDVRSQRVRSLLGLSNSEPNGSVETKNLEQILNGGESPKQKGQEIKRSSGDVLETFNFLENADDSDEDEENDMIEGIPEGKDKHRMNKHKIGNEGLAADLTDDPDTEEALKEFDFLVTAEDGEGAGEARSSGDGTEWDKDDLSPTAEVWDVDQGLISKLKEQYKKERKGKKGVKRANRTKLYDMIADLGDDELPHIPSGIINQSRSASTRMTDHEGARAEEAEPITFPSGGGKSFIMGSDDVLLSVLGLGDLADLTVTNDADYSYDLPANKDAFRKTWNPKYTLRSHFDGVRALAFHPVEPVLVTASEDHTLKLWNLQKTVPAKKSASLDVEPIYTFRAHIGPVLSLAISSNGEQCFSGGIDATIQWWNMPSPSVDPYDTYEPNVLAGTLVGHTDAVWGLAYSGIKNQLLSCSADGTVRLWNPQEKLPCICTYNGDKKHGIPTSVDFIGCDPAHMVTSFNTGSAVIYDLETSQSLVILSSQVDSGLQSNNHINRVVSHPTLPVTITAHEDRHIKFFDNKTGKMIHSMVAHLDAVTSLAVDPNGIYLMSGSHDCSIRLWNLDSKTCVQEITAHRKKLDESIYDVAFHSSKAYIASAGADALAKVFV
With B3 the binding (MST2 (Co-IP with STRN3)) was “binds”.
